Measured values from the supplement of paper PMC6411743.
± gives the standard deviation of the averaged measurements. The entries are a selection whose mix differs from that of the whole data set.

The chains behind the UniProt entries cited, without tags or fusion partners. Where a name states a change or a piece, a line headed by the entry shows the natural chain unless it says otherwise.
UniProt Q01831: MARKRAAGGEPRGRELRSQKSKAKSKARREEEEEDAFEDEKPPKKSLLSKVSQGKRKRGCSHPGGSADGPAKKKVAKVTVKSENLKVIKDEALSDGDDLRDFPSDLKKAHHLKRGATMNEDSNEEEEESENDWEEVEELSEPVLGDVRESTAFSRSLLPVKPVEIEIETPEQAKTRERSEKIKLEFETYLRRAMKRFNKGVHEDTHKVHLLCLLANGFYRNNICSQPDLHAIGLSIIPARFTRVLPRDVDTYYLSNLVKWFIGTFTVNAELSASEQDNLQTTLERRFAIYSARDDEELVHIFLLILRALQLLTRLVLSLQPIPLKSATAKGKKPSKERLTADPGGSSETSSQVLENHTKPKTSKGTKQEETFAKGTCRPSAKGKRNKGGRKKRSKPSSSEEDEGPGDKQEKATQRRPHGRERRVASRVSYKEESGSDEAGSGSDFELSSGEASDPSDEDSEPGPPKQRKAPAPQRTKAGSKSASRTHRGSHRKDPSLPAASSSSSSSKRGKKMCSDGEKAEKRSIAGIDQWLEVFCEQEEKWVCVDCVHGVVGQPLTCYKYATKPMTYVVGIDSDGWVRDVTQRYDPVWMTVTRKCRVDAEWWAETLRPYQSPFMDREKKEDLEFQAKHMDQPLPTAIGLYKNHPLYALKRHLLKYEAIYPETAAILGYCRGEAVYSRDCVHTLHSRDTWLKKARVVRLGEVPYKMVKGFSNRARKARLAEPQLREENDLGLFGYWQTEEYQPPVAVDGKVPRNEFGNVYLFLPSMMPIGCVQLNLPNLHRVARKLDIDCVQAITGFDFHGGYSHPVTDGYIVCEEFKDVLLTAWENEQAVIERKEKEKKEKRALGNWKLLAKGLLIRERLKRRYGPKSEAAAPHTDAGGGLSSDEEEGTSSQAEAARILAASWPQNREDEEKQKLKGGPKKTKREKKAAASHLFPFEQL
UniProt Q14108: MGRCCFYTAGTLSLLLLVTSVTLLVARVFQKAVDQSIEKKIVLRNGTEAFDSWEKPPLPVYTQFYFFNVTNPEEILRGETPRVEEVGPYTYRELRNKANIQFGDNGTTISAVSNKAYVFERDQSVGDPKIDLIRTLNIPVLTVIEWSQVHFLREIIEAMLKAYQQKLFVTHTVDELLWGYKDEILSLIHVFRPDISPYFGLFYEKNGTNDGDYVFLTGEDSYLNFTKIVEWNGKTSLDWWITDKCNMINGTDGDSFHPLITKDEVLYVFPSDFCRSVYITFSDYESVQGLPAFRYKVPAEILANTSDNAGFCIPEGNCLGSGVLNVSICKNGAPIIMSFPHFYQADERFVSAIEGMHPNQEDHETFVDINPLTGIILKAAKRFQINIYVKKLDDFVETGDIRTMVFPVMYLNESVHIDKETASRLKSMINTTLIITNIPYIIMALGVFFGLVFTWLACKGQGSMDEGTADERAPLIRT
UniProt Q02809: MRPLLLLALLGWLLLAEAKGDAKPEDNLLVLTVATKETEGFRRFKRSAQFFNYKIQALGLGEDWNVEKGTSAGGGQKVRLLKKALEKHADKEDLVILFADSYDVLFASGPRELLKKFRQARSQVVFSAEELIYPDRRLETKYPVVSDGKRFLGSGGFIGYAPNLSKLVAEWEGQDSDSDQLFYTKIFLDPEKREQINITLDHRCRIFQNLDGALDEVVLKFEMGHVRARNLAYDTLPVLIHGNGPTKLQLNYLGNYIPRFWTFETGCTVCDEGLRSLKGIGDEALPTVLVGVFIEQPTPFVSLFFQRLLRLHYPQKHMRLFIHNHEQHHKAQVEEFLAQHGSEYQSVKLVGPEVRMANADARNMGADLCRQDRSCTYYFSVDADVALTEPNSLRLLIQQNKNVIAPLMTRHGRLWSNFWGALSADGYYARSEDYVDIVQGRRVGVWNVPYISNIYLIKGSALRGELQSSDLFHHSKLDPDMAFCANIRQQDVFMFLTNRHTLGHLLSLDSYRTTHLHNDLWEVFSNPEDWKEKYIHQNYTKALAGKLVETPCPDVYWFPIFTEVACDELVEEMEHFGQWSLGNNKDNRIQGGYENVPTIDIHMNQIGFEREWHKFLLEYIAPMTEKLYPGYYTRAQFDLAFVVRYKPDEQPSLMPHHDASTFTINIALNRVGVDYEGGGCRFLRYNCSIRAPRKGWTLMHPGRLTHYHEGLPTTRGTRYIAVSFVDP
UniProt Q13064: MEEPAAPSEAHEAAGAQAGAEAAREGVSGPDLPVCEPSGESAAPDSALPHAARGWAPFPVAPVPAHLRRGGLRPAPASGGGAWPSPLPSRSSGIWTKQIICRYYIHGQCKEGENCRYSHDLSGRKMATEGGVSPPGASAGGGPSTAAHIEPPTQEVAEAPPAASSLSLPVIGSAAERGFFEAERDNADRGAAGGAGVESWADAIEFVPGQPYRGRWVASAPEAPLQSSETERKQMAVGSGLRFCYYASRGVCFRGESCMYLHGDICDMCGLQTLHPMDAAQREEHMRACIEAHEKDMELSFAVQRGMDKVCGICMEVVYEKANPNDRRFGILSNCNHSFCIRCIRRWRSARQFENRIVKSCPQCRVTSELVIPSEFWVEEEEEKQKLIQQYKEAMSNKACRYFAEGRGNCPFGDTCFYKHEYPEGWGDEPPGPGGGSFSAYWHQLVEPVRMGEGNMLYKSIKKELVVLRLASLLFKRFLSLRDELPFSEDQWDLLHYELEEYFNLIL
UniProt Q0VDF9: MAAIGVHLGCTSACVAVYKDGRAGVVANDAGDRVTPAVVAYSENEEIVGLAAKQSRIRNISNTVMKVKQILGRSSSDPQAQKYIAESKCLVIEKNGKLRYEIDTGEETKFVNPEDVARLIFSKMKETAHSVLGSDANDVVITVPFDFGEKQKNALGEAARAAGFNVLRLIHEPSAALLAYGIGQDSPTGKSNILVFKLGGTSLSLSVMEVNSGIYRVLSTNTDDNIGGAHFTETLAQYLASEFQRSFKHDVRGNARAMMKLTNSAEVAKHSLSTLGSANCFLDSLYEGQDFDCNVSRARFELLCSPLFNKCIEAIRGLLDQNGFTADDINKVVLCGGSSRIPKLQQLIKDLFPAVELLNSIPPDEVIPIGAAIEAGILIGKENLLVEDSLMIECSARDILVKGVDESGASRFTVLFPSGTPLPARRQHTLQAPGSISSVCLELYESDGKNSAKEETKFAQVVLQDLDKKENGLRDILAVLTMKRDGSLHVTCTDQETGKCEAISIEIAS
UniProt Q13283, whole entry, looked up: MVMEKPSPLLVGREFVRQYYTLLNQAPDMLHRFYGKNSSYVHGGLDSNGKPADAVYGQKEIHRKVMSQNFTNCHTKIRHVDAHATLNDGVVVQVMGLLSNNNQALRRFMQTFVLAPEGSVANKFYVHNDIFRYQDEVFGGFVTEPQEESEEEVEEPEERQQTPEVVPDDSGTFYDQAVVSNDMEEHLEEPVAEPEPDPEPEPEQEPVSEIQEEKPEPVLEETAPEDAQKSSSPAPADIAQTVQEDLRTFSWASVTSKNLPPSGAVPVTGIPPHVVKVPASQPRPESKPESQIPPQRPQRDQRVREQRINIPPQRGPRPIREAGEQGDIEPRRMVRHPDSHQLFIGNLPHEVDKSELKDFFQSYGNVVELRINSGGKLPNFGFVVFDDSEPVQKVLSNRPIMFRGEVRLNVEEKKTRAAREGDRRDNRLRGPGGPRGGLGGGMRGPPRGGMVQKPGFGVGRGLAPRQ
UniProt Q09472, whole entry: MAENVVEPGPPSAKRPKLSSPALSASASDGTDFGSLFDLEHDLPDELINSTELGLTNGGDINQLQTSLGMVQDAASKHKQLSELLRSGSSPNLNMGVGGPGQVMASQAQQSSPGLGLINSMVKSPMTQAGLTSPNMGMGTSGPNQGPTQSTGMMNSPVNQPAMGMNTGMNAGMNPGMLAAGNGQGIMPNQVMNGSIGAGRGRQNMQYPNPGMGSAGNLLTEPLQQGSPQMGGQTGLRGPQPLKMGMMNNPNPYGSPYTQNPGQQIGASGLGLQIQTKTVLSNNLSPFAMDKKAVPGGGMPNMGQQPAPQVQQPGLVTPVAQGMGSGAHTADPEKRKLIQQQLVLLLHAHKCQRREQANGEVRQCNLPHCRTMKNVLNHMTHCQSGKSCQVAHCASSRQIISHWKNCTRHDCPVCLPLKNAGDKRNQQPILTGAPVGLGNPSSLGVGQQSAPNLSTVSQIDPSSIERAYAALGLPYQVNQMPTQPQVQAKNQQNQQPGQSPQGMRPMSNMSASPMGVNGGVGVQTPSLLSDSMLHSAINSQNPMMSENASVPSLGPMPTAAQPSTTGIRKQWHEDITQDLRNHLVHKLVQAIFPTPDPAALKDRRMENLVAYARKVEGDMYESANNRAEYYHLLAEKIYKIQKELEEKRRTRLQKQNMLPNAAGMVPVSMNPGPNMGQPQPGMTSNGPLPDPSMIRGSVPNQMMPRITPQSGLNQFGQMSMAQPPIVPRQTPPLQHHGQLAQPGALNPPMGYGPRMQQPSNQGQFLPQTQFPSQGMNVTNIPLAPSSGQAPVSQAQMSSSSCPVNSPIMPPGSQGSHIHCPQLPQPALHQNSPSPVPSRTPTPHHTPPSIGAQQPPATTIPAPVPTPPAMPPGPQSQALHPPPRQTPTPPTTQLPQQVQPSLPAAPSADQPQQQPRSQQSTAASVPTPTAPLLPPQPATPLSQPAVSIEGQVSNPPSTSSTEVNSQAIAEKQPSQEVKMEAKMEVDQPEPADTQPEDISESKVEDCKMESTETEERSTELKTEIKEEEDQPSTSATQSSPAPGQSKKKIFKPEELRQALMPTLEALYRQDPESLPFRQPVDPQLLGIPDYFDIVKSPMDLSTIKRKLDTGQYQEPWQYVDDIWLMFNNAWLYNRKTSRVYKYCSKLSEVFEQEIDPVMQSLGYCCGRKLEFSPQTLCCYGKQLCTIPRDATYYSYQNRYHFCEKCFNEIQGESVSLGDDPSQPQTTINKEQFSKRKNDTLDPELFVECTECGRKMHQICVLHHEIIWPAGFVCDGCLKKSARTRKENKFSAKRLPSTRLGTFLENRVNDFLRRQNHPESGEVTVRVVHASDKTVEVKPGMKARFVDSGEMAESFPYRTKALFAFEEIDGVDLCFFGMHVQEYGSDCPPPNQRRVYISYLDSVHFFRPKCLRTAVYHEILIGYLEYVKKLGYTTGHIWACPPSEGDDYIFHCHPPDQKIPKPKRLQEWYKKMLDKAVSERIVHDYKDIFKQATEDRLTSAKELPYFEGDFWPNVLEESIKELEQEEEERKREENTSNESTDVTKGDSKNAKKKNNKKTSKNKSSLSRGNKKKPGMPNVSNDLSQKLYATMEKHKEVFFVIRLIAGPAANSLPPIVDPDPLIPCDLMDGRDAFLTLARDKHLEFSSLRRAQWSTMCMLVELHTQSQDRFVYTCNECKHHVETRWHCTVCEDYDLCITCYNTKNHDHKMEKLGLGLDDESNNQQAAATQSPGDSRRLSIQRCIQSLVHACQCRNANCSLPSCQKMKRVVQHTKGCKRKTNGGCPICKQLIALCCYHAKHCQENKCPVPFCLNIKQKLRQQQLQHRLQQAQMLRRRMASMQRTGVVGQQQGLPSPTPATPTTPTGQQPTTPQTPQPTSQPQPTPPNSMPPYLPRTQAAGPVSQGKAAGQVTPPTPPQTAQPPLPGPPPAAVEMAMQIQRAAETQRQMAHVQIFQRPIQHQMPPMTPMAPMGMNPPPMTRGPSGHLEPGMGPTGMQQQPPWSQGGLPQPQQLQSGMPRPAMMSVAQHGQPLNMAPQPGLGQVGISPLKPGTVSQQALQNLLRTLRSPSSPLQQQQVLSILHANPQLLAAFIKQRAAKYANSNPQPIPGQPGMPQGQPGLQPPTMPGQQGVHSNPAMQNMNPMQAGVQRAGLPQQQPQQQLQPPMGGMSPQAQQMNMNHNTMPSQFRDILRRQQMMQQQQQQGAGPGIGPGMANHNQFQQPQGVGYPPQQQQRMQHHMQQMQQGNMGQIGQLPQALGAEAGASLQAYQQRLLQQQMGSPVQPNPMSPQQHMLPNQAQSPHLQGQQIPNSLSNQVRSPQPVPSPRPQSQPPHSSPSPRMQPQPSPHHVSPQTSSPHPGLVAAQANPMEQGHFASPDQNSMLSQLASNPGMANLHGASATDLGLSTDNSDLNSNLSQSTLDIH
UniProt Q13277: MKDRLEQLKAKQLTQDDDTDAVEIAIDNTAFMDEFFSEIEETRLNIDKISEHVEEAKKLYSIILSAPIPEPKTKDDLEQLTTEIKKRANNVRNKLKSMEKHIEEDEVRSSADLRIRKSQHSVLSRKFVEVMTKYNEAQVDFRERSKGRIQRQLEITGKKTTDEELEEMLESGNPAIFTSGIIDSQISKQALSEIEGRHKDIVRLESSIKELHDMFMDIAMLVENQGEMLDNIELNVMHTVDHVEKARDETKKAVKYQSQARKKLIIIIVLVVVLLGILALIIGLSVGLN
UniProt Q04837: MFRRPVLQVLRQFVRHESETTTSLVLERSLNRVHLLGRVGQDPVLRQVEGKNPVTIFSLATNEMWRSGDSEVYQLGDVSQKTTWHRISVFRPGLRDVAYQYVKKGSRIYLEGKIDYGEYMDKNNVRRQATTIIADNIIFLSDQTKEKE

Compound: Nc1ncnc2c1ncn2[C@@H]1O[C@H](COP(=O)(O)OP(=O)(O)OP(=O)(O)O)[C@@H](O)[C@H]1O [adenosine triphosphate]
Assay: NP40-soluble protein abundance relative to vehicle (solubility fold change) (ratio); higher = more soluble protein in presence of ATP
How it was run: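 Each value is a fold change relative to the detergent-processed vehicle, calculated per replicate from vsn-normalised intensities. Jurkat crude lysate received eight concentrations (0.1 to 10 mM) for 10 min at room temperature and 3 min at 37 °C, then was solubilised in 0.8% NP40 with benzonase (60 min, 4 °C). The ultracentrifuged supernatant was TMT-labelled and run by LC-MS/MS in three independent experiments.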

Target	NP40-soluble protein abundance (concentration: 1mM)	NP40-soluble protein abundance (concentration: 2mM)	NP40-soluble protein abundance (concentration: 4mM)	NP40-soluble protein abundance (concentration: 6mM)	NP40-soluble protein abundance (concentration: 8mM)	NP40-soluble protein abundance (concentration: 10mM)
SOX4 (UniProt Q06945)	1 ± 0.12	0.959 ± 0.034	0.966 ± 0.051	1.04 ± 0.086	0.971 ± 0.023	0.953 ± 0.068
UniProt Q01831 and related entries	0.993 ± 0.021	0.991 ± 0.032	0.999 ± 0.04	1.01 ± 0.024	1.05 ± 0.041	1.05 ± 0.023
UniProt Q06323 and related entries	0.886 ± 0.15	0.836 ± 0.094	0.86 ± 0.061	0.858 ± 0.059	0.909 ± 0.027	0.793 ± 0.093
SCARB2 (UniProt Q14108)	0.928 ± 0.066	0.933 ± 0.017	0.923 ± 0.017	0.928 ± 0.008	0.901 ± 0.035	0.85 ± 0.051
UniProt Q13308 and related entries	0.953 ± 0.023	0.99 ± 0.04	0.98 ± 0.037	0.974 ± 0.042	0.946 ± 0.025	0.951 ± 0.023
UniProt Q02809 and related entries	1.1 ± 0.015	1.02 ± 0.014	1.08 ± 0.042	1.1 ± 0.096	1.02 ± 0.055	1.1 ± 0.07
SORD (UniProt Q00796)	0.951 ± 0.03	0.962 ± 0.028	0.938 ± 0.018	0.936 ± 0.046	0.944 ± 0.037	0.958 ± 0.032
MKRN3 (UniProt Q13064)	0.996 ± 0.053	1.03 ± 0.058	0.971 ± 0.044	1 ± 0.013	0.993 ± 0.059	1.004 ± 0.0084
UniProt Q13363 and related entries	1.05 ± 0.1	1.05 ± 0.12	1.03 ± 0.086	0.992 ± 0.16	1.05 ± 0.087	1.06 ± 0.11
UniProt Q06547 and related entries	0.947 ± 0.018	0.968 ± 0.021	0.93 ± 0.041	0.964 ± 0.026	0.941 ± 0.03	0.929 ± 0.057
GABPA (UniProt Q06546)	0.967 ± 0.024	0.97 ± 0.028	0.94 ± 0.035	0.923 ± 0.071	0.917 ± 0.019	0.939 ± 0.045
UniProt Q13033 and related entries	1.01 ± 0.0061	0.995 ± 0.037	0.992 ± 0.031	0.993 ± 0.057	1.01 ± 0.046	1.02 ± 0.043
UniProt Q00722 and related entries	0.955 ± 0.027	1.02 ± 0.09	1.04 ± 0.12	1.03 ± 0.086	1.01 ± 0.072	0.995 ± 0.074
UniProt Q02338 and related entries	0.995 ± 0.089	0.983 ± 0.069	0.949 ± 0.068	0.97 ± 0.094	1.02 ± 0.035	0.999 ± 0.052
UniProt Q13439-4|Q13439-5|Q13439	0.96 ± 0.024	0.9643 ± 0.0088	0.969 ± 0.016	0.988 ± 0.035	0.935 ± 0.014	0.95 ± 0.011
OGDH (UniProt Q02218)	1.12 ± 0.015	1.05 ± 0.017	1.08 ± 0.046	1.03 ± 0.058	1.11 ± 0.11	1.06 ± 0.091
UniProt Q08209 and related entries	0.938 ± 0.017	0.962 ± 0.047	0.94 ± 0.025	0.952 ± 0.043	0.944 ± 0.043	0.919 ± 0.047
PPP1R8 (UniProt Q12972)	0.965 ± 0.063	0.958 ± 0.042	0.941 ± 0.051	0.975 ± 0.038	0.899 ± 0.031	0.931 ± 0.022
UniProt Q12802 and related entries	1.05 ± 0.022	1.03 ± 0.019	1.06 ± 0.046	1.07 ± 0.05	1 ± 0.021	1.05 ± 0.03
HSPA14 (UniProt Q0VDF9)	1 ± 0.029	0.997 ± 0.029	0.979 ± 0.036	0.964 ± 0.028	0.965 ± 0.043	0.977 ± 0.026
G3BP1 (UniProt Q13283)	1.09 ± 0.029	1.08 ± 0.017	1.13 ± 0.018	1.17 ± 0.016	1.15 ± 0.015	1.17 ± 0.026
EP300 (UniProt Q09472)	0.962 ± 0.049	0.986 ± 0.02	0.972 ± 0.036	0.983 ± 0.034	0.953 ± 0.027	0.963 ± 0.035
UniProt Q13277 and related entries	0.954 ± 0.028	0.991 ± 0.029	0.961 ± 0.042	0.967 ± 0.023	0.928 ± 0.068	0.941 ± 0.03
BYSL (UniProt Q13895)	1.07 ± 0.07	1.06 ± 0.058	1.06 ± 0.059	1.03 ± 0.041	1.04 ± 0.024	1.07 ± 0.051
SSBP1 (UniProt Q04837)	0.956 ± 0.048	0.943 ± 0.035	0.909 ± 0.016	0.906 ± 0.044	0.912 ± 0.013	0.909 ± 0.029
CSTF1 (UniProt Q05048)	1.01 ± 0.028	1.03 ± 0.037	1.07 ± 0.012	1.03 ± 0.013	1.11 ± 0.015	1.08 ± 0.021

Record cards, from the list above. Values in the order: NP40-soluble protein abundance (concentration: 1mM)	NP40-soluble protein abundance (concentration: 2mM)	NP40-soluble protein abundance (concentration: 4mM)	NP40-soluble protein abundance (concentration: 6mM)	NP40-soluble protein abundance (concentration: 8mM)	NP40-soluble protein abundance (concentration: 10mM)
UniProt Q02809 and related entries as listed: 1.1 ± 0.015	1.02 ± 0.014	1.08 ± 0.042	1.1 ± 0.096	1.02 ± 0.055	1.1 ± 0.07
SCARB2 (UniProt Q14108) as listed: 0.928 ± 0.066	0.933 ± 0.017	0.923 ± 0.017	0.928 ± 0.008	0.901 ± 0.035	0.85 ± 0.051
